From the supplement of paper PMC12819154, “High-throughput peptide-centric local stability assay extends protein–ligand identification to membrane proteins, tissues and bacteria” (Nature Structural & Molecular Biology, 2025)
The other results are listed elsewhere or left out. Most values lie at the level of the controls, where differences are scatter.

Sequences of proteins named here, by UniProt entry; tags and fusion partners are left off. A change or cut given only in a name is not applied to a line headed by its entry.
UniProt Q9Y6A4: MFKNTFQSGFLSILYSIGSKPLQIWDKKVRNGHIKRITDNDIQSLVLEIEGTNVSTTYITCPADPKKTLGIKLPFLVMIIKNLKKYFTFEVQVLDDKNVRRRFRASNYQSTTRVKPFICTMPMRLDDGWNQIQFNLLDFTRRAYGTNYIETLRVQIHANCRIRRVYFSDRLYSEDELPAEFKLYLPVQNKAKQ
UniProt Q9Y6R6: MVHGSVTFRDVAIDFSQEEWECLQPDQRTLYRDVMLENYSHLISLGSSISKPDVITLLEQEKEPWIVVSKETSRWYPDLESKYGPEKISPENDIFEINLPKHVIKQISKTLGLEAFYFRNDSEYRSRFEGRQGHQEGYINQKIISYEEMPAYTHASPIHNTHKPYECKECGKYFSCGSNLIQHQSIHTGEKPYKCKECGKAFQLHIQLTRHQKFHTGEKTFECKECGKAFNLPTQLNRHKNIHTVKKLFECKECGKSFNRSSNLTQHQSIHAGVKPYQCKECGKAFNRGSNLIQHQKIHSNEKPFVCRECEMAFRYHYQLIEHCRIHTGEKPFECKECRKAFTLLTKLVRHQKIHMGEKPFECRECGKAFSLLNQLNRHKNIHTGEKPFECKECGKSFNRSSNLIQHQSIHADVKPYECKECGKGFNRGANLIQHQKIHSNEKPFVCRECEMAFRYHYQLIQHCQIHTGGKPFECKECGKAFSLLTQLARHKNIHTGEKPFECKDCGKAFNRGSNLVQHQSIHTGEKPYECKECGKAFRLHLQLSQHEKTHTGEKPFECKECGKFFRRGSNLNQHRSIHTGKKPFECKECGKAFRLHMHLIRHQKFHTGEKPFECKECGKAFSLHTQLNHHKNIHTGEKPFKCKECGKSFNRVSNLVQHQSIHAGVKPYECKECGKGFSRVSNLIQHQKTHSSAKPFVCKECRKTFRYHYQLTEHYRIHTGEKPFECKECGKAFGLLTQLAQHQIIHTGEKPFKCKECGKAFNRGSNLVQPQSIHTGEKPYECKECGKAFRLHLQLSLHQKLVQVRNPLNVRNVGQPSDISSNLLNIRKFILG
UniProt Q9Y4P1: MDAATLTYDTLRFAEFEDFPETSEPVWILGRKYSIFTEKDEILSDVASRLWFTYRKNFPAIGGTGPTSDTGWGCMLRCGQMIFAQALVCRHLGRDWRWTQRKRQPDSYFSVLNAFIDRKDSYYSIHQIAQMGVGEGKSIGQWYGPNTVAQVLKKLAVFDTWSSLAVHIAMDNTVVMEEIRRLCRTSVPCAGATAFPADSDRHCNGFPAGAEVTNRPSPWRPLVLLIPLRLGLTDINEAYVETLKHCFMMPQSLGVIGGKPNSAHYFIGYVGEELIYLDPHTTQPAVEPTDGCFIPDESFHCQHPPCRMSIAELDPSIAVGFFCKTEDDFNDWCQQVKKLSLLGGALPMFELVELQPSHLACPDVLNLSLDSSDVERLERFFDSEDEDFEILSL
UniProt Q9Y561: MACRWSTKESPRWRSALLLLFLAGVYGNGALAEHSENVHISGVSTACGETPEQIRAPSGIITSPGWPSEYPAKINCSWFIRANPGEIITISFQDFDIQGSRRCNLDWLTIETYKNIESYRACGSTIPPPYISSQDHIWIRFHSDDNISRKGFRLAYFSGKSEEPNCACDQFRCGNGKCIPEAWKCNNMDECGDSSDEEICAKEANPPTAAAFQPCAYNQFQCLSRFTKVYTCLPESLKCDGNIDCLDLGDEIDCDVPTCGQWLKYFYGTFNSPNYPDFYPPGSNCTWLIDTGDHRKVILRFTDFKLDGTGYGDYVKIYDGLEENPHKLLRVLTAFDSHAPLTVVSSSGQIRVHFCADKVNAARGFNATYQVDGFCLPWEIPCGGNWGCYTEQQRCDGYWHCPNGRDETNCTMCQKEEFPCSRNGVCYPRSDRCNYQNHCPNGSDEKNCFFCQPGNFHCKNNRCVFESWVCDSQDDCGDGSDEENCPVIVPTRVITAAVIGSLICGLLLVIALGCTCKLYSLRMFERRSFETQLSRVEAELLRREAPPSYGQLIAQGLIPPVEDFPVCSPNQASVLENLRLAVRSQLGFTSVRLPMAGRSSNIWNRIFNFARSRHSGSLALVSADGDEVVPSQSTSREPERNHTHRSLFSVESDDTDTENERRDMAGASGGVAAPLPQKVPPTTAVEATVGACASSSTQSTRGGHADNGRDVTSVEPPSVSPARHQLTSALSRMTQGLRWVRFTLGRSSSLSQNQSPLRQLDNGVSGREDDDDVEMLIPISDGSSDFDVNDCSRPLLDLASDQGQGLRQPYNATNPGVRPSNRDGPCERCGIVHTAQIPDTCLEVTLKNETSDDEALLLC
UniProt Q9Y376: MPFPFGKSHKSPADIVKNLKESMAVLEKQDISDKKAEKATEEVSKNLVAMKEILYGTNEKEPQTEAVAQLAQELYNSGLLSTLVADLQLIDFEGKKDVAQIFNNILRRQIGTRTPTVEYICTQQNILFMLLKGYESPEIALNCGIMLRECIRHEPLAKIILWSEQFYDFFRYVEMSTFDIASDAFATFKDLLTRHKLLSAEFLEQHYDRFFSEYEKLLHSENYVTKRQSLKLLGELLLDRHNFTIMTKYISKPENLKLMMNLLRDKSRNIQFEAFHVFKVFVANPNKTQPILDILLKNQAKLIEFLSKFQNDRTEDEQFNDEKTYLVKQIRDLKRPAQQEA
UniProt Q9Y371: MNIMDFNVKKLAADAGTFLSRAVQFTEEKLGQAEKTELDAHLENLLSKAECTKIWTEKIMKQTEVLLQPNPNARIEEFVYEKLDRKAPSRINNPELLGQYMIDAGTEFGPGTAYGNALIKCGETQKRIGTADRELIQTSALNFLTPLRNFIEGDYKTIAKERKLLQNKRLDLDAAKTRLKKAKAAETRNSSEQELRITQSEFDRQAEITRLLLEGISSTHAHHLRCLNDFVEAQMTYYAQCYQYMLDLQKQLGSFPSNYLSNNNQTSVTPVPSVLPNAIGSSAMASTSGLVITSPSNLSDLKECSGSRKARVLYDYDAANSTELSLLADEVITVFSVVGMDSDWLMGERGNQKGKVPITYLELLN
UniProt Q9Y5M8: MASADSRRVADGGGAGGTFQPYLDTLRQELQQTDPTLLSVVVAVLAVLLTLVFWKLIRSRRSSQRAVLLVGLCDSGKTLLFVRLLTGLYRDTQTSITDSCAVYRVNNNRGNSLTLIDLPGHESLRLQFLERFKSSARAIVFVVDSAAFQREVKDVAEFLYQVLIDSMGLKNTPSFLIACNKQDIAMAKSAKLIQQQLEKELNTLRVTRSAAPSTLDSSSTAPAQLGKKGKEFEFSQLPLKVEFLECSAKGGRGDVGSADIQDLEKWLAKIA
UniProt Q9Y573: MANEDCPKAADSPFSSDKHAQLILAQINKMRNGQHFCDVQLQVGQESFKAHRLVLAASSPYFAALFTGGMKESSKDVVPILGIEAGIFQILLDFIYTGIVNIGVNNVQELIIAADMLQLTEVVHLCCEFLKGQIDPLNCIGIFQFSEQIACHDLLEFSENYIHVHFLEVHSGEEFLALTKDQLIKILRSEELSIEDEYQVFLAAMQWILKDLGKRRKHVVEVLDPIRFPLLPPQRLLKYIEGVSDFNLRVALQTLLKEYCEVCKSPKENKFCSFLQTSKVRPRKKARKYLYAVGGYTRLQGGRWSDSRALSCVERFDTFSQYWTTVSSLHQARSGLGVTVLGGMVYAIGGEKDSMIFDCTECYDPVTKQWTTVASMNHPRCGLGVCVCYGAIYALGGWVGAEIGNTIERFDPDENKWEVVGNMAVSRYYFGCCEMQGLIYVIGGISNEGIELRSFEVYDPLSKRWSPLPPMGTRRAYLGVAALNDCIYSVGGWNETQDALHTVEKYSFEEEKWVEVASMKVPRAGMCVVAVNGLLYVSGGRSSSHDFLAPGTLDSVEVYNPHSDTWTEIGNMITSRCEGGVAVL
UniProt Q9Y2V2: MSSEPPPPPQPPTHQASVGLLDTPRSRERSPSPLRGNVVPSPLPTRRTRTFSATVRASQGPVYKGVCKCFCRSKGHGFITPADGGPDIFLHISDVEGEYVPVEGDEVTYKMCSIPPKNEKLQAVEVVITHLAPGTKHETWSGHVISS
UniProt Q9Y490: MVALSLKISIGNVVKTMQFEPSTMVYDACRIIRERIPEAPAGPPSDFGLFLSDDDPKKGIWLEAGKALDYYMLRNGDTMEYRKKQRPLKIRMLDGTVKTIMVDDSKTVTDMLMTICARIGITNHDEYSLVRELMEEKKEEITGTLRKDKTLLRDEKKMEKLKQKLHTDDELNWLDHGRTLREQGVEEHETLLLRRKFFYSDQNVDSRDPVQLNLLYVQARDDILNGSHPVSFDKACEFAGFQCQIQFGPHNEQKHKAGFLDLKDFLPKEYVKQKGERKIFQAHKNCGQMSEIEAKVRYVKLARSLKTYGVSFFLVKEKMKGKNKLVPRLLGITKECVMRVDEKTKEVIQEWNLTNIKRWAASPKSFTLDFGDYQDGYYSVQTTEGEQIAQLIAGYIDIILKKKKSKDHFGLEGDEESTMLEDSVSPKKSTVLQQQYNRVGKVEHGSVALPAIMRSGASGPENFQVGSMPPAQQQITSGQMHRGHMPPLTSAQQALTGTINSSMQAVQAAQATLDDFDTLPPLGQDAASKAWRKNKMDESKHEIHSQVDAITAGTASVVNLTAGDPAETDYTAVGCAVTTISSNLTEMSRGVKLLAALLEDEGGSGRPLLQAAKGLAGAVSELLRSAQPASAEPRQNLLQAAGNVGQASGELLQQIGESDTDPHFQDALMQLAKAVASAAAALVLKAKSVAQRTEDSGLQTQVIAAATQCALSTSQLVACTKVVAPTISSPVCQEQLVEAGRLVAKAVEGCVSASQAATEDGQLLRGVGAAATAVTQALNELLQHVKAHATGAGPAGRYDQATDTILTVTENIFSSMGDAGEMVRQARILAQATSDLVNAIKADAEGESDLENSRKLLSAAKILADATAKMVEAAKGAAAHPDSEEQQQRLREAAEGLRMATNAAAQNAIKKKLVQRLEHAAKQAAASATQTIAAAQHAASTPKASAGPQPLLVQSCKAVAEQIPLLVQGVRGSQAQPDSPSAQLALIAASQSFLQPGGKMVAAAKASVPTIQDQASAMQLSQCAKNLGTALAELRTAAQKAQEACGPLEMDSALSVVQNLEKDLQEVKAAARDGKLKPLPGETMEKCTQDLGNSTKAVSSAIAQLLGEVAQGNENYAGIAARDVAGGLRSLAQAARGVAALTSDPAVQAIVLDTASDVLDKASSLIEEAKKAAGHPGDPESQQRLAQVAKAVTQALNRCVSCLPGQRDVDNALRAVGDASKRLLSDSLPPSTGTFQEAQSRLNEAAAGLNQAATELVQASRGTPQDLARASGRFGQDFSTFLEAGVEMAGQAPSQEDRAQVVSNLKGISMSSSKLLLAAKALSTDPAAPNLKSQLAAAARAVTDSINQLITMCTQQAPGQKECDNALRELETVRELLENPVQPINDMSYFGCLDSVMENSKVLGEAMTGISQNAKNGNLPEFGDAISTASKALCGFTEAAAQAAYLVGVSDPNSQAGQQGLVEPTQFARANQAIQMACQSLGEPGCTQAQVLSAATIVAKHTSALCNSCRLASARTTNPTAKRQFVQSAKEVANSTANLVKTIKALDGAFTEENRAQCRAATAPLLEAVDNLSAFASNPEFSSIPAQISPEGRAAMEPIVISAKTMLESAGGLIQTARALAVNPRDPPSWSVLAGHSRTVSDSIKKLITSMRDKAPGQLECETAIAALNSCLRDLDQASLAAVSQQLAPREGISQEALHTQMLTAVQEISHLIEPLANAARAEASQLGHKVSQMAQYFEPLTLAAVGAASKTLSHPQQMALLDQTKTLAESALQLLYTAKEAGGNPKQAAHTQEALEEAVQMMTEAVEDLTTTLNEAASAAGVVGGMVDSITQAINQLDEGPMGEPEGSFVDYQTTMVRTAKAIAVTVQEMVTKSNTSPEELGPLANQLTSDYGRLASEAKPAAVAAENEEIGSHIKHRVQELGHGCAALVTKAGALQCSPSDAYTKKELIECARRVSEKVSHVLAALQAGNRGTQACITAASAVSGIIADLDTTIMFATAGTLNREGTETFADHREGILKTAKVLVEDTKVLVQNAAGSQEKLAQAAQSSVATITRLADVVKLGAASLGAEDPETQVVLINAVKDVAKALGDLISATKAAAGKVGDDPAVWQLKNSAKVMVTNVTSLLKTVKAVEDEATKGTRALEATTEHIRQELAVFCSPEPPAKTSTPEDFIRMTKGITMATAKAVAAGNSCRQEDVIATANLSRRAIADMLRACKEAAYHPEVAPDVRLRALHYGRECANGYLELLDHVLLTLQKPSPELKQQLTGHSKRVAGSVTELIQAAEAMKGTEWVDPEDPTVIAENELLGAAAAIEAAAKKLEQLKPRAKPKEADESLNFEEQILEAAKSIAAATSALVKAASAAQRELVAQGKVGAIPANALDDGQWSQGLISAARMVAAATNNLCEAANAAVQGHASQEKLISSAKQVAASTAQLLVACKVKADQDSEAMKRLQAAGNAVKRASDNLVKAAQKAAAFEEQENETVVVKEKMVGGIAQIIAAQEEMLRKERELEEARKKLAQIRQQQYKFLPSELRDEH

What follows are targets tested with Cc1nc(Nc2ncc(C(=O)Nc3c(C)cccc3Cl)s2)cc(N2CCN(CCO)CC2)n1 [dasatinib] (assay: log2 fold change of tryptic peptide abundance, ligand vs vehicle (limited proteolysis) (log2 ratio); higher = more trypsin-susceptible (destabilized)). Details: ligand concentration: 5 uM; sample: K562 cleared lysate.

Target | log2 fold change
UniProt Q9Y6A4 (peptide sequence: LYLPVQNK, peptide start residue: 183) | 0.0393
NCOA3 (peptide sequence: SSMRPGFEDIIR, peptide start residue: 287) (UniProt Q9Y6Q9) | -0.228
INPP5F (peptide sequence: VNFLKPNLK, peptide start residue: 813) (UniProt Q9Y2H2) | 0.454
SNX10 (peptide sequence: RFPEEDEEGK, peptide start residue: 155) (UniProt Q9Y5X0) | 0.0754
UniProt Q9Y4B6 (peptide sequence: ELQLQEVALR, peptide start residue: 181) | -0.274
NUDC (peptide sequence: DMVVDIQR, peptide start residue: 197) (UniProt Q9Y266) | -0.203
UniProt Q9Y530 (peptide sequence: GDLFACPK, peptide start residue: 19) | -0.117
SPIN1 (peptide sequence: SSVGPSKPVSQPR, peptide start residue: 38) (UniProt Q9Y657) | 0.134
SBDS (peptide sequence: FILPVNEGK, peptide start residue: 176) (UniProt Q9Y3A5) | -0.209
UniProt Q9Y473 (peptide sequence: SQLDIHHR, peptide start residue: 488) | 0.258
KCTD3 (peptide sequence: IAEGFSESK, peptide start residue: 731) (UniProt Q9Y597) | -0.083
UniProt Q9Y6R6 (peptide sequence: HQKIHMGEK, peptide start residue: 351) | -0.0971
MRPS28 (peptide sequence: HSPLTQMGPAK, peptide start residue: 86) (UniProt Q9Y2Q9) | -0.106
NDUFB9 (peptide sequence: EAEEEFWYR, peptide start residue: 66) (UniProt Q9Y6M9) | 0.351
EID1 (peptide sequence: VSAALEEADKMFLR, peptide start residue: 124) (UniProt Q9Y6B2) | 0.23
ARIH1 (peptide sequence: VQYPDAKPVR, peptide start residue: 287) (UniProt Q9Y4X5) | 0.118
ATG4B (peptide sequence: DSYYSIHQIAQMGVGEGK, peptide start residue: 120) (UniProt Q9Y4P1) | 0.189
WDR37 (peptide sequence: ASHSTSQLSQK, peptide start residue: 111) (UniProt Q9Y2I8) | -0.229
UniProt Q9Y561 (peptide sequence: SLFSVESDDTDTENERR, peptide start residue: 646) | 0.114

Single entries from the entries so far:
MRPS28 (peptide sequence: HSPLTQMGPAK, peptide start residue: 86) (UniProt Q9Y2Q9) – log2 fold change: -0.106
UniProt Q9Y4B6 (peptide sequence: ELQLQEVALR, peptide start residue: 181) – log2 fold change: -0.274
NDUFB9 (peptide sequence: EAEEEFWYR, peptide start residue: 66) (UniProt Q9Y6M9) – log2 fold change: 0.351

Next entries

Target | log2 fold change
MRPS18C (peptide sequence: AQIMGFMPVTYKDPAYLKDPK, peptide start residue: 114) (UniProt Q9Y3D5) | -0.117
TEX264 (peptide sequence: LDPGTEPLGTTK, peptide start residue: 289) (UniProt Q9Y6I9) | 0.0892
CNPY2 (peptide sequence: SQDLHCGACR, peptide start residue: 23) (UniProt Q9Y2B0) | 0.138
WSB1 (peptide sequence: LLLNLVDHTEVVR, peptide start residue: 162) (UniProt Q9Y6I7) | 0.312
UniProt Q9Y520 (peptide sequence: MPPPANLPSLKAENK, peptide start residue: 54) | 0.392
SLC5A6 (peptide sequence: SYGQDHLDTGLFPEKPR, peptide start residue: 585) (UniProt Q9Y289) | 0.543
CAB39 (peptide sequence: LLGELLLDR, peptide start residue: 232) (UniProt Q9Y376) | -0.552
SH3GLB1 (peptide sequence: ITQSEFDR, peptide start residue: 197) (UniProt Q9Y371) | -0.0724
TCAF1 (peptide sequence: LGETTLEEWKR, peptide start residue: 642) (UniProt Q9Y4C2) | 0.317
F11R (peptide sequence: KVIYSQPSAR, peptide start residue: 277) (UniProt Q9Y624) | -0.0788
SAMHD1 (peptide sequence: NFTKPQDGDVIAPLITPQKK, peptide start residue: 577) (UniProt Q9Y3Z3) | 0.141
SRPRB (peptide sequence: SAAPSTLDSSSTAPAQLGKK, peptide start residue: 209) (UniProt Q9Y5M8) | 0.0952
RAPGEF2 (peptide sequence: AQSLPQPQQQPPPAHK, peptide start residue: 1034) (UniProt Q9Y4G8) | -0.233
BZW2 (peptide sequence: GKSVFLDQMK, peptide start residue: 390) (UniProt Q9Y6E2) | -0.445
IPP (peptide sequence: FCSFLQTSK, peptide start residue: 271) (UniProt Q9Y573) | 0.12
CARHSP1 (peptide sequence: HETWSGHVISS, peptide start residue: 137) (UniProt Q9Y2V2) | 0.0595
C2CD2 (peptide sequence: STIIISGISK, peptide start residue: 511) (UniProt Q9Y426) | -0.197
TLN1 (peptide sequence: ALGDLISATK, peptide start residue: 2090) (UniProt Q9Y490) | -0.101
